Data: patent US20070244111A1, “Pyrazolopyrimidines” (priority 2003, published 2007)
Some entries share one result that the patent states for a list of compounds.

How the values were obtained:
Format in all cases: in vivo
Venturia inaequalis = assay: Venturia test (apple)/protective; details: apple plants, protective spray, application rate 100 g/ha, evaluation 10 days after inoculation
Botrytis cinerea = assay: Botrytis test (bean)/protective; details: bean plants, protective spray, application rate 100 g/ha, evaluation 2 days after inoculation
Alternaria solani = assay: Alternaria test (tomato)/protective; details: tomato plants, protective spray, application rate 750 g/ha, evaluation 7 days after inoculation
Podosphaera leucotricha = assay: Podosphaera test (apple)/protective; details: apple plants, protective spray, application rate 1000 g/ha, evaluation 10 days after inoculation

C=Cc1cnn2c(N3CCC(C)CC3)c(-c3ccc(F)cc3Cl)c(Cl)nc12 [Example 1, 3-vinyl-5-chloro-6-(2-chloro-4-fluorophenyl)-7-(4-methylpiperidino)pyrazolo[1 ,5a]pyrimidine]
efficacy (Venturia inaequalis): more than 80% | efficacy (Botrytis cinerea): at least 90% | efficacy (Alternaria solani): at least 90% | efficacy (Podosphaera leucotricha): at least 80%
